Consider 12 molecules from paper PMC7947682.

The chains behind the UniProt entries cited, without tags or fusion partners. Where a name states a change or a piece, a line headed by the entry shows the natural chain unless it says otherwise. A line that says so, or that is headed by a name, gives the form on record, which may keep a tag or linker.
Isoform 5 of Nuclear receptor coactivator 3 (Q9Y6Q9-5, form named): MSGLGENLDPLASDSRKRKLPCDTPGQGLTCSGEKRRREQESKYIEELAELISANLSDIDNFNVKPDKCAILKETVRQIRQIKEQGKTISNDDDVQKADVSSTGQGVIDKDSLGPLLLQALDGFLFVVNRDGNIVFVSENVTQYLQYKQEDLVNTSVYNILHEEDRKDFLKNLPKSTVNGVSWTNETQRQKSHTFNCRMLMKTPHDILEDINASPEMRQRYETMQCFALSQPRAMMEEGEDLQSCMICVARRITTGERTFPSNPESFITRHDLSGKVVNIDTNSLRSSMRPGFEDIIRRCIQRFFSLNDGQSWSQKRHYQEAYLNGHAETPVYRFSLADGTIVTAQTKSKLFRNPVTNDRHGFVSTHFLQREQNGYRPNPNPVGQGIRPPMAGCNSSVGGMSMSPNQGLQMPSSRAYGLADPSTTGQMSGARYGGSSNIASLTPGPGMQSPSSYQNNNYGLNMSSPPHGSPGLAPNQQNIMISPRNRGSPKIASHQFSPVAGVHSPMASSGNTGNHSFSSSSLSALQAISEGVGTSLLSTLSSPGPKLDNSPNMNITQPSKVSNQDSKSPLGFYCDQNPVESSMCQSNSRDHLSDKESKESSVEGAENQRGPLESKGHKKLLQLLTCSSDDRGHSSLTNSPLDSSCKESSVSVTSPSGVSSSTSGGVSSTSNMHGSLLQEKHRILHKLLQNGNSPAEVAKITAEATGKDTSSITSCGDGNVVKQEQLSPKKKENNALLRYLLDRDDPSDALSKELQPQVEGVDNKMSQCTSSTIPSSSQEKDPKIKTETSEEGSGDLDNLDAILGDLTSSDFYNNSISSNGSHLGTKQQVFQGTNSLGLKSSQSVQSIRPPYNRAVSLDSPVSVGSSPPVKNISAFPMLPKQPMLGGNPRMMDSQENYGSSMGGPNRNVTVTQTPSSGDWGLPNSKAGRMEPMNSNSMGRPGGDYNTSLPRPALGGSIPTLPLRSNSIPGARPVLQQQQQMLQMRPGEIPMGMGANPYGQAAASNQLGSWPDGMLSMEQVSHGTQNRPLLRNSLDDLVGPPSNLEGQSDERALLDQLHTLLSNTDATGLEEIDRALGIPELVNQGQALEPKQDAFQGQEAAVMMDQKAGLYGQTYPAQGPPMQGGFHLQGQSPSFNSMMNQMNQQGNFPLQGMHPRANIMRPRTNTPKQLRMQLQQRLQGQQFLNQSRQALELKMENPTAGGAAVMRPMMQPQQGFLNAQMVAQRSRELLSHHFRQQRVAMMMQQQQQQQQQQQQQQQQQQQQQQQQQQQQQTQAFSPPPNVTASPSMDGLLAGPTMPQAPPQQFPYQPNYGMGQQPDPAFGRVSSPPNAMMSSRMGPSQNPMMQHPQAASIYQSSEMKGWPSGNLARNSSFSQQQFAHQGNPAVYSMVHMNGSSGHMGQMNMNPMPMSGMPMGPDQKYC
UniProt Q13547: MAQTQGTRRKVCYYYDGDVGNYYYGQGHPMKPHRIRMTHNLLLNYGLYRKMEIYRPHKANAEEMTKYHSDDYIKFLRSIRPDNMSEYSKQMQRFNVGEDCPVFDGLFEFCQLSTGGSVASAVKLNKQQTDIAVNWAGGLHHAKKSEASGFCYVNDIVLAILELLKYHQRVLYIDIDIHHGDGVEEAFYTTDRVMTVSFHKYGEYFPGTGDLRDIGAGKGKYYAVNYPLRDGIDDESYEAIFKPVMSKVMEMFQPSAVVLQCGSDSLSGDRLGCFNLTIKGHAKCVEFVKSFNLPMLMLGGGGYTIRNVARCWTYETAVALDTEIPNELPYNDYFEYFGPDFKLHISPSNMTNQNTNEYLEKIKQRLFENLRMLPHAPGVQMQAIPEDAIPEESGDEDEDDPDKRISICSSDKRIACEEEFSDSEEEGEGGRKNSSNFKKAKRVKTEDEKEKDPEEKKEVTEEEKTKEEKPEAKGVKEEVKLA
UniProt Q9UPQ9: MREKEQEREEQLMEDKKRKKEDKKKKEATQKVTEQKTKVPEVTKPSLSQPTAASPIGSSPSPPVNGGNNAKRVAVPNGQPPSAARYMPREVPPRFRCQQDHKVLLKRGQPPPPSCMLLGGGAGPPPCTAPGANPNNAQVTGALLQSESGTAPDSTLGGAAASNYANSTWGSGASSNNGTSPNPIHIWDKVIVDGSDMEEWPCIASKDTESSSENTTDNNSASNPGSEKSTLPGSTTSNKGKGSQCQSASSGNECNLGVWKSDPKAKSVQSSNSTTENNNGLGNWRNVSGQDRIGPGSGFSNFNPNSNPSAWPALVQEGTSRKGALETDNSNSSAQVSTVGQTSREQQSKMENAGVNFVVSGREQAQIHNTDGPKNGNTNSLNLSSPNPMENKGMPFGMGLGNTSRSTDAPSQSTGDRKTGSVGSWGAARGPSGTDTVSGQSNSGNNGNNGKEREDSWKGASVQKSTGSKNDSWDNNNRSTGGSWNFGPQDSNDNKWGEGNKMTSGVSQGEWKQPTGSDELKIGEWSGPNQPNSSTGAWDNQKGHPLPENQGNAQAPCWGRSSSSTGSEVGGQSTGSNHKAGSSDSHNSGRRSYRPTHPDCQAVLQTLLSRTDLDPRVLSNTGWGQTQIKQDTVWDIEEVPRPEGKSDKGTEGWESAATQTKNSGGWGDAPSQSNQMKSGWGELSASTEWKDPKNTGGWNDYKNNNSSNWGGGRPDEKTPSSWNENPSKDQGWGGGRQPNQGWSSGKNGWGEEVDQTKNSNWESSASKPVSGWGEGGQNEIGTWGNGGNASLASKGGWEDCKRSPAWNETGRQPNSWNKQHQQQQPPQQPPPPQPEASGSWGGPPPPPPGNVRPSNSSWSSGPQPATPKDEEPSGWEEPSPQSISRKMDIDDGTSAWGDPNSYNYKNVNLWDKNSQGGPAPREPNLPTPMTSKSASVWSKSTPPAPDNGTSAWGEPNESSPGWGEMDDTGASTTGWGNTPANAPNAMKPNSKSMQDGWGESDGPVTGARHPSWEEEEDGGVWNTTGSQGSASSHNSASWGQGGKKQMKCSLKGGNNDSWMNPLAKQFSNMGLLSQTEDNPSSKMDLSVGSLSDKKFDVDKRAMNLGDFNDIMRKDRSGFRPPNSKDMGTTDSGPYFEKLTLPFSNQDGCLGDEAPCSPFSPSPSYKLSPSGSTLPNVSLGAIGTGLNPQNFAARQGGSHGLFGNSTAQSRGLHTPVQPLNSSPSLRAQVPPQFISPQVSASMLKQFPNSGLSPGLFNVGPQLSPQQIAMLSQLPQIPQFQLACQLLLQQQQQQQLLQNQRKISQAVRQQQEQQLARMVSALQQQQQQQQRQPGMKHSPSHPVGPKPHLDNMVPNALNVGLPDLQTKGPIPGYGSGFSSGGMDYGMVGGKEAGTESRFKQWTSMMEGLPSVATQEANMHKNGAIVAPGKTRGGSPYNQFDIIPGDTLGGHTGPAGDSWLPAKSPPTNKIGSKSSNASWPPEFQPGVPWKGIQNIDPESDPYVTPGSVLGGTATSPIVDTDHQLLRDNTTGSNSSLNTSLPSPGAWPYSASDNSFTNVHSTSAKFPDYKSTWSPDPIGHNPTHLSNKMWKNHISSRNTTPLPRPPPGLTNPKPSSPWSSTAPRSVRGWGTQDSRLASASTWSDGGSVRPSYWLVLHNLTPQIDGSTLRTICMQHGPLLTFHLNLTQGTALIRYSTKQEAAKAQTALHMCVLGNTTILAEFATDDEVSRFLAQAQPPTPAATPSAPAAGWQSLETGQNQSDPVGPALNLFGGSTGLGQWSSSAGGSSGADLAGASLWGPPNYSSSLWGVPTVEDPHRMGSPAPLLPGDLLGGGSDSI
UniProt Q9P0J7: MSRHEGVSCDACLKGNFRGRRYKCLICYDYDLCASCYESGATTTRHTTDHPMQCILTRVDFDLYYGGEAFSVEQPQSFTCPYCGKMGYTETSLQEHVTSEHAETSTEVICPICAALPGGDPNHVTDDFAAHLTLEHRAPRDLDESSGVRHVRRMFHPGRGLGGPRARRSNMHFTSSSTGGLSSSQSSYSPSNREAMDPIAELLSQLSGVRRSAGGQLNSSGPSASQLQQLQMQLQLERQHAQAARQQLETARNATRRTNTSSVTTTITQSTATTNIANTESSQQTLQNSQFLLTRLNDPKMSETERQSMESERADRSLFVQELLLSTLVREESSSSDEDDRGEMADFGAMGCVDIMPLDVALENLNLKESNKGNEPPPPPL
UniProt O75190: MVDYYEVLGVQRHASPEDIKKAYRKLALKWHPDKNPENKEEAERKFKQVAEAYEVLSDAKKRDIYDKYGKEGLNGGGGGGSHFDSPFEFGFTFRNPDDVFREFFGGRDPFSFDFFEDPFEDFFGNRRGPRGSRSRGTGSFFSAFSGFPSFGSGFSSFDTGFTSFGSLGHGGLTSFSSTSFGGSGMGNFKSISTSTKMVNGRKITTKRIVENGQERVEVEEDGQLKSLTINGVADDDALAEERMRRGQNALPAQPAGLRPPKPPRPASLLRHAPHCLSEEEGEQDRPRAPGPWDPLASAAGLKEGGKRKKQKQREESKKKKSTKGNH
UniProt O43347: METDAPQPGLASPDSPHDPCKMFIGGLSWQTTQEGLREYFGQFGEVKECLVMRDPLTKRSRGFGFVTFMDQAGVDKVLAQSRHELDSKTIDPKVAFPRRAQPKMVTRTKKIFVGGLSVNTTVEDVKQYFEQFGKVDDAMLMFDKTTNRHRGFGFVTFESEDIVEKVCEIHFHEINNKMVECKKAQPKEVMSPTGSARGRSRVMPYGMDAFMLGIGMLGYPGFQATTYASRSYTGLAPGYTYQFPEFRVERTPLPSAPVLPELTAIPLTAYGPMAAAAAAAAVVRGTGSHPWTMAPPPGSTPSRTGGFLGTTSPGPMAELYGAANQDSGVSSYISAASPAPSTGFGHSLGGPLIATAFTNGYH
UniProt Q14677: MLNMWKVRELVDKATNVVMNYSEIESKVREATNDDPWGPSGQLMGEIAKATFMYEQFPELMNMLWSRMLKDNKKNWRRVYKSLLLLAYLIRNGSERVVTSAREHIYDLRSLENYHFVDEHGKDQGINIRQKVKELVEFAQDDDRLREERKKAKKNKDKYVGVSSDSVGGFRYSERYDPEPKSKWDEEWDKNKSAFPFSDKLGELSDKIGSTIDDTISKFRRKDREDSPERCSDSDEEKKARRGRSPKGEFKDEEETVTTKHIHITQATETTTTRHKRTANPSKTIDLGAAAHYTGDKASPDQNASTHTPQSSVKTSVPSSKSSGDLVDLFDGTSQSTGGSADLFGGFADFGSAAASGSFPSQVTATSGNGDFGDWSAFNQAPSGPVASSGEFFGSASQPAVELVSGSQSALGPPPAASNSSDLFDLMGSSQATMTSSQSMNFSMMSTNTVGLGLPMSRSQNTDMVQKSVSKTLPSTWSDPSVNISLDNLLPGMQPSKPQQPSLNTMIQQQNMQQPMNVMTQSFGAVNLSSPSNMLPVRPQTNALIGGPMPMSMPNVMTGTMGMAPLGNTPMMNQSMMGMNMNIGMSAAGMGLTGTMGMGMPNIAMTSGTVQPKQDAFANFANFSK

For this assay, the target named is T1, Avi-FOXA2 (UniProt Q9Y261).
T1 sequence (chain, biotin on the Avi tag (biotin tagging system with co-expressed E. coli BirA)): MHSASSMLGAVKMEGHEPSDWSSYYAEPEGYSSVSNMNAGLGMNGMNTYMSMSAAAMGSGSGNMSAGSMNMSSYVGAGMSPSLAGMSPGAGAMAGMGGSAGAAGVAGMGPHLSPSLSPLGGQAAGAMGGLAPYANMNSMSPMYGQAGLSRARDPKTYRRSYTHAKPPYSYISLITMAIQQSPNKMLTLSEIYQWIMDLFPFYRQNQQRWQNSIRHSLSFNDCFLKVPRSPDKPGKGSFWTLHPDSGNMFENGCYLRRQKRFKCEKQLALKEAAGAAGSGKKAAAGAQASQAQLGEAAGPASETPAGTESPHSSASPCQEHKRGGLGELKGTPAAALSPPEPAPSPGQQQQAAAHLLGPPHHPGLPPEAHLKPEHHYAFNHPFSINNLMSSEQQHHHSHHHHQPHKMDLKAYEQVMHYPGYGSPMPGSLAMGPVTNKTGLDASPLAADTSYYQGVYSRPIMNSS
Description: affinity purification with mass spectrometry; MCF-7 cells transfected with pAvi-FOXA2 and pEF1-BirA; lysate (150 mM NaCl, 1% NP-40, 50 mM Tris-HCl pH 7.4) on streptavidin resin overnight, washed four times; SDS-PAGE, trypsin digest, LTQ Orbitrap Velos.

These are yes or no findings as the source states them, for the method shown. Binding seen in cells or lysates may run through a third protein. A yes stands for co-enrichment or nearness to the bait. Other partners may have been found.

Consider “Isoform 5 of Nuclear receptor coactivator 3 (from UniProt Q9Y6Q9-5 1-1420)”, for which the binding entry is “binds”.

In the case of “Histone deacetylase 1 (from UniProt Q13547 1-482)”, the binding entry is recorded as “binds”.

With “Trinucleotide repeat-containing gene 6B protein (Fragment) (from UniProt Q9UPQ9 1-1833)”, the binding entry was “binds”.

As for “Acetyl-CoA carboxylase 2 (human (endogenous in MCF-7))”, the binding result is reported as “binds”.

Take “E3 ubiquitin-protein ligase KCMF1 (from UniProt Q9P0J7 1-381)”: the binding entry was “binds”.

Consider “DNA-dependent protein kinase catalytic subunit (from UniProt P78527 1-4128)”, for which the binding entry is listed as “binds”.

As for “Protein diaphanous homolog 1 (from UniProt O60610 1-1272)”, the binding result is “binds”.

For “Protein PRRC2B (from UniProt Q5JSZ5 1-2229)”, the binding result is “binds”.

Regarding “DnaJ homolog subfamily B member 6 (Fragment) (from UniProt O75190 1-326)”, the binding result is reported as “binds”.

In the case of “RNA-binding protein Musashi homolog 1 (from UniProt O43347 1-362)”, the binding entry is “binds”.

In the case of “Clathrin interactor 1 (from UniProt Q14677 1-625)”, the binding entry was “binds”.

B1: Eukaryotic translation initiation factor 4E transporter (protein, UniProt Q9NRA8 1-985)
chain: MDRRSMGETESGDAFLDLKKPPASKCPHRYTKEELLDIKELPHSKQRPSCLSEKYDSDGVWDPEKWHASLYPASGRSSPVESLKKELDTDRPSLVRRIVDPRERVKEDDLDVVLSPQRRSFGGGCHVTAAVSSRRSGSPLEKDSDGLRLLGGRRIGSGRIISARTFEKDHRLSDKDLRDLRDRDRERDFKDKRFRREFGDSKRVFGERRRNDSYTEEEPEWFSAGPTSQSETIELTGFDDKILEEDHKGRKRTRRRTASVKEGIVECNGGVAEEDEVEVILAQEPAADQEVPRDAVLPEQSPGDFDFNEFFNLDKVPCLASMIEDVLGEGSVSASRFSRWFSNPSRSGSRSSSLGSTPHEELERLAGLEQAILSPGQNSGNYFAPIPLEDHAENKVDILEMLQKAKVDLKPLLSSLSANKEKLKESSHSGVVLSVEEVEAGLKGLKVDQQVKNSTPFMAEHLEETLSAVTNNRQLKKDGDMTAFNKLVSTMKASGTLPSQPKVSRNLESHLMSPAEIPGQPVPKNILQELLGQPVQRPASSNLLSGLMGSLEPTTSLLGQRAPSPPLSQVFQTRAASADYLRPRIPSPIGFTPGPQQLLGDPFQGMRKPMSPITAQMSQLELQQAALEGLALPHDLAVQAANFYQPGFGKPQVDRTRDGFRNRQQRVTKSPAPVHRGNSSSPAPAASITSMLSPSFTPTSVIRKMYESKEKSKEEPASGKAALGDSKEDTQKASEENLLSSSSVPSADRDSSPTTNSKLSALQRSSCSTPLSQANRYTKEQDYRPKATGRKTPTLASPVPTTPFLRPVHQVPLVPHVPMVRPAHQLHPGLVQRMLAQGVHPQHLPSLLQTGVLPPGMDLSHLQGISGPILGQPFYPLPAASHPLLNPRPGTPLHLAMVQQQLQRSVLHPPGSGSHAAAVSVQTTPQNVPSRSGLPHMHSQLEHRPSQRSSSPVGLAKWFGSDVLQQPLPSMPAKVISVDELEYRQ
Turning to B1, the binding result is on record as “binds”.
